Data published in patent US20120258961A1, “4-AMINO-1,3-THIAZINE OR OXAZINE DERIVATIVE” (SHIONOGI & CO., LTD., priority 2009, published 2012).
Some of these results come from one statement about several compounds together.

By UniProt entry, the sequences of proteins in these tests, tags left out. Residues count along the entry.
UniProt P56817, 46-501: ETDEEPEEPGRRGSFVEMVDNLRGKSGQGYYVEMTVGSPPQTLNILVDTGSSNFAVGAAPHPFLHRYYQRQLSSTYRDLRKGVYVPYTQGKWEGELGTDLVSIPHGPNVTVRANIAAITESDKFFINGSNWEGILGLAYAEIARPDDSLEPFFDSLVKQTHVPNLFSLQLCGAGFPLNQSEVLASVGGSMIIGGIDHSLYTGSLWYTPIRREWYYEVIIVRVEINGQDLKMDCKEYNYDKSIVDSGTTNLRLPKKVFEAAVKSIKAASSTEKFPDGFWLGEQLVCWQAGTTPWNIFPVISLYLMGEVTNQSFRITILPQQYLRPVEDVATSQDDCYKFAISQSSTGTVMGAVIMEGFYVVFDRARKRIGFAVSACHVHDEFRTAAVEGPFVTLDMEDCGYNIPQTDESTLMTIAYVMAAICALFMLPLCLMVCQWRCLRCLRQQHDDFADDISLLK

What follows are compounds tested against T1, Recombinant human BACE1 (Homo sapiens, UniProt P56817) (assay: Assay of BACE1 inhibiting activity). Conditions: Recombinant human BACE1 7.4 nmol/L, substrate peptide 18 nmol/L, pH 5.0, 30° C., 3 hours; read-out: Test example 1 IC50 (BACE1 inhibiting activity).
T1 construct: purchased R&D Systems
Type: biochemical
Method: 48.5 μL of substrate peptide solution (Biotin-XSEVNLDAEFRHDSGC-Eu: X=ε-amino-n-capronic acid, Eu=Europium cryptate) was added to each well of 96-hole half-area plate (a black plate: Costar), and after addition of 0.5 μl of the test compound (dissolved in […]) and 1 μl of Recombinant human BACE1 (R&D Systems), the reaction mixture was incubated at 30° C. for 3 hours. The substrate peptide was synthesized by reacting Cryptate TBPCOOH mono SMP (CIS bio international) with Biotin-XSEVNLDAEFRHDSGC (Peptide Institute, Inc.). The final concentrations of the substrate peptide and Recombinant human BACE1 were adjusted to 18 nmol/L and 7.4 nmol/L, respectively, and the reaction was performed in sodium acetate buffer (50 mmol/L sodium acetate, pH 5.0, 0.008% Triton X-100). After the incubation for reaction, 50 μl of 8.0 μg/ml Streptavidin-XL665 (CIS bio international) dissolved in phosphate buffer (150 mmol/L K2HPO4—KH2PO4, pH 7.0, 0.008% Triton X-100, 0.8 mol/L KF) was added to each well and left stand at 30° C. for an hour. After then, fluorescence intensity was measured (excitation wavelength: 320 nm, measuring wavelength: 620 nm and 665 nm) using Wallac 1420 multilabel counter (Perkin Elmer life sciences). Enzymatic activity was determined from counting ratio of each wavelength (10,000×Count 665/Count 620) and 50% inhibitory concentration (IC50) against the enzymatic activity was calculated.

IC50, ≤ 1000 nM:
Cc1cnc(C(=O)Nc2ccc(F)c(C3(C)N=C(N)CCS3)c2)cn1 (stereo not drawn) [Compound I-1], CC1(c2cc(NC(=O)c3ccc(C#N)cn3)ccc2F)N=C(N)c2ccccc2S1 (stereo not drawn) [Compound I-3], CC1(c2cc(NC(=O)c3ccc(C#N)cn3)ccc2F)N=C(N)c2ccccc2O1 (stereo not drawn) [Compound I-4], CC1(c2cc(NC(=O)c3ccc(C#N)cn3)ccc2F)N=C(N)c2cc(Cl)ccc2O1 (stereo not drawn) [Compound I-5], CC1(c2cc(NC(=O)c3ccc(C#N)cn3)ccc2F)N=C(N)CCS1 (stereo not drawn) [Compound I-6], Cc1cnc(C(=O)Nc2ccc(F)c(C3(C)N=C(N)c4ccccc4S3)c2)cn1 (stereo not drawn) [Compound I-7], CC1(c2cc(NC(=O)c3ccc(C#N)cn3)ccc2F)N=C(N)c2cc(N)ccc2O1 (stereo not drawn) [Compound I-9], CC1(c2cc(NC(=O)c3ccc(C#N)cn3)ccc2F)N=C(N)c2ccc(N)cc2O1 (stereo not drawn) [Compound I-10], CC1(c2cc(NC(=O)c3ccc(C#N)cn3)ccc2F)N=C(N)c2cc(F)ccc2O1 (stereo not drawn) [Compound I-11]
